In PubChem BioAssay AID2685 (National Center for Advancing Translational Sciences (NCATS), 2010):
Among all 320,000 compounds or so, about 2,100 (0.66%) were called active. The shares of active, inactive and inconclusive entries below differ from those in the screen. The call rests on the fitted dose curve; in most records, active means well fitted inhibition curve with a large enough effect in the signal ratio, with a control signal flat (not every such curve was filed as active); inconclusive means small, poorly fitted or top-dose-only effect, or effect the other way, or a change in a side signal; inactive means flat fitted curve, though single readings scatter; the % refers to the signal ratio. A potency beside an inconclusive call is a rough fit, not a confirmed value.

Assay: qHTS Assay for Lipid Storage Modulators in Drosophila S3 Cells
Conditions: BODIPY lipid droplet fluorescence, 18-24 h, cells fed with added oleic acid; lipid storage change, negative = inhibition: at 46.1 µM (top of the series) unless noted
Outline: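 Drosophila S3 cells loaded with oleic acid (400 uM, as added) and compounds at several concentrations; lipid droplets imaged by 488-nm laser-scanning cytometry, 500–530 nm intensity and object ratio to cell channel. Percent activity normalized to 20 uM Triacsin C.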
On the % scale 0 is the no-effect control and ±100 the full control effect; potency means the concentration at half of the fitted maximal effect.

Row | SMILES | lipid storage change, negative = inhibition | Potency
1 | Nc1c([N+](=O)[O-])c(=O)sc2ccccc12 | inconclusive: 48% | –
2 | O=C(Cn1nc(C(=O)O)c2ccccc2c1=O)Nc1ccc2c(c1)OCO2 | inconclusive: 4.27% | –
3 | CC(C)Nc1nc(Oc2ccc(=O)n(-c3ccccc3)n2)nc(N(C)C)n1 | inconclusive: 16.8% | –
4 | COc1ccc(Cl)cc1S(=O)(=O)N1CCCC(C(=O)N2CCCC2)C1 (configuration not stated) | inconclusive: -28.3% | –
5 | CC1CCCCN1C(=O)CSc1nnc(-c2ccco2)o1 (configuration not stated) | – | inconclusive: 10.3 µM [activator, single point]
6 | COc1ccc(S(=O)(=O)N2CCCCC2)cc1C(=O)Nc1cc(C)on1 | – | inconclusive: 8.2 µM [falling, partial curve, poor fit]
7 | Cc1nn(Cc2ccccc2Cl)c2sc(C(=O)OC3CCCC3=O)cc12 (configuration not stated) | – | inconclusive: 5.8 µM [rising, partial curve]
8 | O=C(O/N=C(/c1ccccc1)c1ccncc1)c1cccc(F)c1 | inconclusive: 6.4% | –
9 | CCN(C(=O)CSc1nnc(-c2ccco2)n1C)c1c(N)n(Cc2ccccc2)c(=O)[nH]c1=O | inconclusive: -4.05% | –
10 | CCC1(CC)NC(=O)N(CC(=O)OCC(=O)Nc2ccc(C(F)(F)F)cc2)C1=O | inconclusive: -6.6% | –
11 | O=C(Nc1ccnn1C1CCN(C/C=C/c2ccccc2)CC1)C1CCCC1 | – | inconclusive: 5.8 µM [falling, partial curve]
12 | COc1ccc(OC)c(NC(=O)CCN2CCN(c3ccccc3F)CC2)c1 | inconclusive: 74.2% | –
13 | C=CCOc1cccc(C2C(C(=O)c3ccco3)=C(O)C(=O)N2Cc2ccncc2)c1 (configuration not stated) | – | inconclusive: 18.4 µM [activator, single point]
14 | Cc1ccc(C(=O)N2CCCC2)cc1S(=O)(=O)N1CCCCC1 | – | inconclusive: 1.46 µM [activator, partial curve, poor fit]
15 | CS(=O)(=O)N(CC(=O)Nc1ccccc1C(=O)N1CCOCC1)c1ccc(Cl)cc1 | inconclusive: 0.598% | –
16 | O=C(COc1ccc(Cl)cc1)NN=C1CCCCCCC1 | inconclusive: 17.3% | –
17 | CC(C)OC(=O)c1cc(NC(=S)Nc2ccc([N+](=O)[O-])cc2)cc(C(=O)OC(C)C)c1 | – | inconclusive: 29.1 µM [falling, single point]
18 | Cn1c(=O)c2c(nc(SCC(=O)NCc3ccco3)n2C)n(C)c1=O | inconclusive: 21.5% | –
19 | Cc1nn2c(NCCCn3ccnc3)cc(C(C)C)nc2c1-c1ccccc1 | inconclusive: -23.6% | –
20 | Cc1cc(C)nc(Nc2ccc(N3CCCC3)cc2)n1 | inconclusive: 7.64% | –
21 | CCOC(=O)CN(C(=O)CSc1nnc(CNc2ccc(F)cc2)o1)c1ccccc1 | inconclusive: 15.8% | –
22 | COc1cc2c(cc1OC)[C@H](C)N(C(=S)Nc1ccc(F)cc1)CC2 | inconclusive: 8.57% | –
23 | CCOC(=O)/C(=N\Nc1ncnc2ccccc12)c1ccc(C)cc1 | – | inconclusive: 2.06 µM [activator, partial curve]
24 | COc1ccc(-c2noc(CN(C(=O)c3cccs3)C(C)C)n2)cc1 | inconclusive: 1.81% | –
25 | CC(C)(C)CN1C(=O)C(=O)NC[C@@H]1Cc1ccc(O)cc1 | – | inconclusive: 1.16 µM [falling, full curve]
26 | O=C(Nc1ccc(OC(F)(F)C(F)F)c(NC(=O)c2cccc(F)c2)c1)c1cccc(F)c1 | – | inconclusive: 32.6 µM [activator, single point]

An excerpt from above in order of molar mass, largest number first.
Row | SMILES | lipid storage change, negative = inhibition | Potency
17 | CC(C)OC(=O)c1cc(NC(=S)Nc2ccc([N+](=O)[O-])cc2)cc(C(=O)OC(C)C)c1 | – | inconclusive: 29.1 µM [falling, single point]
2 | O=C(Cn1nc(C(=O)O)c2ccccc2c1=O)Nc1ccc2c(c1)OCO2 | inconclusive: 4.27% | –
8 | O=C(O/N=C(/c1ccccc1)c1ccncc1)c1cccc(F)c1 | inconclusive: 6.4% | –

Later entries

Row | SMILES | lipid storage change, negative = inhibition | Potency
27 | O=C(COc1ccc(Cl)cc1Br)NC1CC1 | – | inconclusive: 29.1 µM [activator, single point]
28 | COc1cccc(NC(=O)c2ccc3c(c2)C(=O)N(CC2CCCO2)C3=O)c1 (configuration not stated) | – | inconclusive: 7.31 µM [falling, partial curve, poor fit]
29 | Cc1ccc(CN(Cc2ccccn2)C(=O)Nc2ccc(C)c(C)c2)cc1 | inconclusive: 42.3% | –
30 | CC(=O)N1c2ccc(S(=O)(=O)N3CCCCC3)cc2CC1C(=O)Nc1cccc(C)c1 (configuration not stated) | inconclusive: -0.542% | –
31 | CCCc1ccc(C(=O)/C=C/N(C)C)cc1 | inconclusive: -4.24% | –
32 | COc1cc(/C=N/Nc2nc(C)nc3c2cnn3-c2ccccc2)ccc1O | inconclusive: 15.1% [at 9.22 µM] | –
33 | NNC(=O)c1sc(-c2ccc(Cl)cc2)cc1N | inconclusive: 0.175% | –
34 | N#Cc1ccccc1S(=O)(=O)N1CCN(S(=O)(=O)c2ccc(Br)c(C(=O)O)c2)CC1 | inactive: -3.74% | –
35 | COC(=O)[C@]1(C)N[C@H](c2ccc(SC3CCCCC3)c(OC)c2)[C@@H]2C(=O)N(C)C(=O)[C@@H]21 | – | inconclusive: 0.366 µM [activator, full curve, poor fit]
36 | C=CCNC(=S)N/N=C/c1ccc(C)s1 | inconclusive: -26% | –
37 | COc1ccc2[nH]c(C)c(C(=O)CN(C)C)c2c1 | inconclusive: -5.98% | –
38 | O=C(CSc1nnc(-c2ccncc2)o1)NC1C2CC3CC(C2)CC1C3 (configuration not stated) | inconclusive: 18.5% | –
39 | O=C(NNC(=O)c1ccccc1[N+](=O)[O-])c1csc(N2CCOCC2)n1 | – | inconclusive: 0.326 µM [activator, full curve]
40 | CCCCC(CC)C(=O)Nc1cccc(SC)c1 (configuration not stated) | inconclusive: 5.03% | –
41 | Cc1cc2c(C)c(C)c(=O)[nH]c2cc1N | – | inconclusive: 0.146 µM [activator, full curve, poor fit]
42 | COCCN1C(=O)N(c2ccc(OC)cc2)C(=O)C1CC(=O)Nc1cccc(F)c1 (configuration not stated) | – | inconclusive: 29.1 µM [activator, single point]
43 | COc1ccc(CC2SC(=Nc3ccc(F)cc3)NC2=O)cc1 (configuration not stated) | inconclusive: -26.1% | –
44 | COC(=O)c1c(C(=O)OC)n(CCCN)c2ccc(C)cc12 | – | inconclusive: 29.1 µM [rising, single point]
45 | COc1ccc([N+](=O)[O-])cc1NC(=O)C(C)N1CCCC1 (configuration not stated) | inconclusive: -36.5% | –
46 | O=C(Cc1cccs1)Nc1nc(-c2ccc(F)cc2F)cs1 | – | inconclusive: 0.731 µM [activator, single point]
47 | Cc1nnc(SCC(=O)Nc2cccc(N)c2)n1-c1ccccc1 | inconclusive: 14.9% | –
48 | CC(C)(C)c1cc(CCC(=O)NNC(=O)c2ccncc2)cc(C(C)(C)C)c1O | inconclusive: -29.8% | –
49 | CCCC[N+](CC#Cc1ccccc1)(CCCC)CCCS(=O)(=O)[O-] | inconclusive: -11.3% | –
50 | O=C(COC(=O)c1ccc[nH]c1=O)NC1CCCc2ccccc21 (configuration not stated) | inactive: -20.5% | –
51 | COc1ccc(-n2nnnc2-c2cccc(OC)c2)cc1 | inconclusive: 13.5% | –
52 | CCn1c(SCC(=O)c2ccc3c(c2)Cc2ccccc2-3)nnc1-c1ccc(N)cc1 | – | inconclusive: 25.9 µM [falling, single point]

Row | SMILES | lipid storage change, negative = inhibition | Potency
53 | COCC(=O)Nc1ncc(S(=O)(=O)c2ccc([N+](=O)[O-])cc2)s1 | inconclusive: -9.83% | –
54 | COCCN(C(=O)COC(=O)/C=C/c1ccccc1Cl)c1c(N)n(Cc2ccccc2)c(=O)[nH]c1=O | inconclusive | –
55 | O=C(CN1C(=O)NC2(CCc3ccccc32)C1=O)c1ccc(Br)s1 (configuration not stated) | – | active: 4.11 µM
56 | O=C(N/N=C/C=C\c1ccccc1[N+](=O)[O-])c1cc(-c2ccccc2)nc2ccccc12 | – | inconclusive: 8.2 µM [activator, partial curve, poor fit]
57 | COc1ccc(N2CCN(C(=O)COc3ccc(S(=O)(=O)N4CCOCC4)cc3C)CC2)cc1 | – | inconclusive: 0.0517 µM [falling, full curve, poor fit]
58 | Cc1cc2cc(CNC(=O)CCC(=O)O)ccc2[nH]1 | inconclusive: 4.41% | –
59 | CCS(=O)(=O)c1ccc(O)c(NC(=O)c2cc(OC)c(OC)c(OC)c2)c1 | inconclusive: 21.3% | –
60 | N=C1C(c2nc3ccccc3c(=O)[nH]2)=C(O)CN1CCc1ccccc1 | – | inconclusive: 0.517 µM [activator, full curve, poor fit]
61 | CCc1ccccc1N1CCN(S(=O)(=O)c2ccc(F)c(C)c2)CC1 | – | inconclusive: 18.4 µM [activator, partial curve]
62 | O=C(c1ccccc1)C1CN(Cc2ccccc2)CCC1(O)c1ccccc1 (configuration not stated) | inconclusive: -6.43% | –
63 | CCc1nnc(NS(=O)(=O)c2ccc(N)cc2)s1 | inconclusive: 24.8% | –
64 | CC1C(c2ccccc2)N(C)CCC12NC(=O)NC2=O (configuration not stated) | inconclusive: -13.7% | –
65 | O=C(O)c1cccc(S(=O)(=O)N2CC=C(c3ccccc3)CC2)c1 | inconclusive: -17.7% | –
66 | N=c1sccn1CC(=O)Nc1cccc2ccccc12 | inconclusive: 2.49% | –
67 | O=C(NCCc1csc(-c2ccc(Cl)cc2)n1)c1ccco1 | inconclusive: -100% | –
68 | c1cncc(-c2nnc3n2N=C(c2cccs2)CS3)c1 | inconclusive: -102% | –
69 | O=C(COC(=O)c1c[nH]c(=O)[nH]c1=O)Nc1cccc([N+](=O)[O-])c1 | inconclusive: -9.51% | –
70 | Cc1ccccc1CNC(=O)COc1ccccc1 | inconclusive: 32% | –
71 | O=C(Nc1ccc(OC(F)F)cc1)c1ccccn1 | inactive: 7.36% | –
72 | Cc1cccc(C(=O)NCCN2CCCC2)c1 | inconclusive: -0.0839% | –
73 | CCSc1ncc(/C=N/Nc2ccc([N+](=O)[O-])cc2)n1C | inconclusive: -2.65% | –
74 | Clc1cc(NC2CCCCC2)ncn1 | inconclusive: -17.1% | –
75 | CC1CCCCN1CCCNC(=O)C1CCN(c2nnc(-n3cccc3)s2)CC1 (configuration not stated) | – | inconclusive: 29.1 µM [falling, single point]
76 | Cc1ccc(C(C)C)c(OCC(=O)NN2C(=O)c3ccccc3C2=O)c1 | inconclusive: 200% | –
77 | CCn1c(/C(C#N)=C(\O)CCc2ccccc2)nc2ccccc21 | – | inconclusive: 4.61 µM [activator, single point]

Some of the entries so far, as a markdown table:

| Row | SMILES | lipid storage change, negative = inhibition | Potency |
| --- | --- | --- | --- |
| 63 | CCc1nnc(NS(=O)(=O)c2ccc(N)cc2)s1 | inconclusive: 24.8% | – |
| 68 | c1cncc(-c2nnc3n2N=C(c2cccs2)CS3)c1 | inconclusive: -102% | – |
